# Whole data set: some 33,000 sequences, median “E-score (-0.5 to 0.5)” near -8e-05, cut for the highest 2% near 0.23. The list shows a part of the results.
# Target: T1, Nrg2 (UniProt P38082)
# T1 sequence: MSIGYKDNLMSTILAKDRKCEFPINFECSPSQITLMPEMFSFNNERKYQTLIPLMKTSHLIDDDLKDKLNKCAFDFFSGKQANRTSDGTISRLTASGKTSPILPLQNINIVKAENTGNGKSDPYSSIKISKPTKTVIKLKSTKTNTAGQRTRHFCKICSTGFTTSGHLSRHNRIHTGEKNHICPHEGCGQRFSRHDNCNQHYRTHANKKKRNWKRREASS
# Test: PBM E-score (8-mer binding enrichment) (E-score (-0.5 to 0.5)); higher = stronger / more preferred TF binding
# Settings: protein concentration: 100 nM; construct: GST-full length
# Method: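 Universal 'all 10-mer' protein binding microarrays (Agilent AMADID 015681) probed with GST-tagged S. cerevisiae TFs (full-length or DBD) made by in vitro transcription/translation (PURExpress), about 100-200 nM. Bound TF was detected with fluorescent anti-GST. Each ungapped 8-mer (which stands for itself and its reverse complement) is scored by the PBM enrichment score (E-score), a modified Wilcoxon-Mann-Whitney statistic from -0.5 to +0.5, computed with the Universal PBM Analysis Suite. Scale: above 0.35 generally sequence-specific binding.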
row,Sequence,PBM E-score
1,GCCCATCA,-0.152
2,AACTGAAA,0.0615
3,CTCTCGCA,-0.0191
4,CCCAAGAC,-0.0333
5,GCGCCCGC,0.0535
6,GCGATCCC,-0.0756
7,GCAAGAAC,0.188
8,CCAGCGCG,0.066
9,CATCGGTC,-0.112
10,TCAATTGA,0.021
11,CAGAAATA,0.12
12,CTCCGAAG,0.00793
13,AACGGCAC,-0.244
14,ATGCCCTC,0.0243
15,GAGCTCGA,0.183
16,ATCATCGC,0.0399
17,CCTTTGTC,0.0208
18,CTACAGAA,0.0765
19,CCCTTGTA,-0.0812
20,CAGAGATC,-0.029
21,TCCGGGAA,0.0395
22,GTGATTTA,0.102
23,TAGGCACA,-0.109
24,CCCTCACG,-0.0421
25,AATCGTGG,0.2

row,Sequence,PBM E-score
1,AATTTTTG,0.0673
2,ATCCAGTA,0.0538
3,AGACGACG,-0.0421
4,GGGTTGAC,0.0552
5,AAAAGGAG,-0.182
6,GCATGCCC,0.0203
7,AAGCACGG,-0.0932
8,TGAGGACA,0.0644
9,AAGTCAAA,0.134
10,GCTCGCAC,0.005
11,TCTAACCA,0.147
12,CGGCCGGA,-0.0668
13,CCTACAGC,0.165
14,AAACATTA,-0.189
15,CCGCTTAG,-0.0665
16,CCCACAGG,-0.095
17,GGACCCGA,0.0929
18,GTGACAAA,0.0162
19,TCGTGAAA,-0.124
20,TAAATACA,-0.00857
21,TGTGCTAA,0.0809
22,GGACTTTA,-0.0473
23,AACTCTCG,0.114
24,AACCTTAG,-0.109
25,AGGCGTCG,0.0257

# In a second layout: results already given
row	Sequence	PBM E-score
9	CATCGGTC	-0.112
10	TCAATTGA	0.021

# More results follow:

row,Sequence,PBM E-score
1,CAGTTATG,0.116
2,AGTATGCG,0.0324
3,CCCCGCCA,0.0356
4,AGACTTAT,-0.275
5,AACGTGCT,-0.119
6,AAATAATA,0.203
7,GCACCCGA,-0.0914
8,CGGCAGAC,-0.234
9,AGCGGTTG,-0.028
10,ACCAACGG,-0.19
11,ATGGTGCC,-0.195
12,AGCAGGGG,-0.182
13,CTGTGCTC,0.0672
14,GAACTCAA,-0.0609
15,AGCGGCTG,-0.0903
16,GCACTAAC,-0.0635
17,GAAAGGGA,-0.0232
18,ATCCTGGC,-0.0281
19,AATTCAGC,0.044
20,AGCACGAC,-0.0799
21,AATTTTGT,0.0423
22,CACAGTCC,-0.0485
23,CCACTGTA,0.064
24,AATCGGAC,0.0294
25,GCGTATCA,0.0274

row,Sequence,PBM E-score
1,AAGTCCAC,-0.102
2,CAGCGGCA,-0.126
3,GGCGTGAA,-0.0326
4,ACTGAGCG,-0.158
5,ACCAGTGA,-0.135
6,CTAGCCTC,-0.262
7,GAATTGAA,0.0538
8,CGACTTGA,0.00238
9,ACGACGTG,-0.0647
10,CACACTAG,0.0401
11,TGACAGCA,0.00602
12,ACGAATGA,0.156
13,GGCTACAA,0.0783
14,ATCGGAAA,0.0359
15,GCCTACCC,-0.1
16,GTTCAAGA,0.029
17,ATGGAGCA,0.0393
18,CCGCCGTC,0.132
19,GCCCTACC,-0.103
20,AACTCCTC,-0.189
21,GCGGCATA,-0.0187
22,TAATGAAA,0.0368
23,TACTTACA,-0.0166
24,CAGGCGAG,-0.105
25,AGGACATC,0.108

row,Sequence,PBM E-score
1,CGCGCAGA,0.232
2,ATGGTGGG,-0.0902
3,AGGGCGAT,-0.148
4,CCATATCC,0.0805
5,GCCTTCGC,-0.0892
6,CGTGCGAA,0.00716
7,GGTACGTA,-0.169
8,CAAGGCAA,-0.0192
9,ACCCAAAA,-0.00454
10,ACCCGGCG,-0.112
11,TATATACA,0.207
12,AGCAGACT,-0.138
13,CAGACTGA,-0.118
14,CTATTTCC,0.255
15,ACATACGT,-0.236
16,CACACCCC,-0.227
17,AGGGGGTG,-0.443
18,ATAGGTCA,0.0225
19,ACAATGAC,-0.125
20,GAATTTAC,0.0505
21,CGCCTGAA,0.181
22,ACAGGCTG,-0.0514
23,GACAAGGC,-0.0661
24,ACGGGAAA,0.198
25,AATAACTG,0.114

row,Sequence,PBM E-score
1,GCTCGAGC,0.24
2,CGCGTCGC,-0.0522
3,ACCATTAT,-0.0283
4,AAGGTAAA,0.0112
5,TGACATAA,0.0755
6,AACAATCT,0.0946
7,TATTAACA,0.187
8,AGAAGTGG,-0.0614
9,GCACCTAA,-0.0998
10,AGTCGGTG,-0.168
11,AATGCGAG,0.107
12,CACGATGG,-0.105
13,ACGCGAAT,0.0458
14,GGACTAGA,0.0471
15,CTTAACCA,0.0122
16,ATGAAGGC,-0.092
17,AGATGACC,-0.0394
18,CGCCCTCA,-0.195
19,CGCAAGCA,-0.1
20,ACATGTAT,0.161
21,TAAACGAA,0.0719
22,ACCGCAGG,-0.00629
23,AACTTCTT,0.0847
24,AACATAGA,0.0686
25,CATGTGAC,-0.142

row,Sequence,PBM E-score
1,AGGGCTGA,-0.201
2,AGGTAGCG,-0.021
3,TACACATA,0.108
4,GAGGATAA,-0.0361
5,ACTGAACA,0.154
6,ACGCCGGC,0.103
7,GCATATGC,0.0211
8,AGCAAGAG,-0.089
9,AAGTAAAT,0.191
10,ATGGACAC,0.0509
11,CTGCTTTC,0.104
12,AGGGCCGA,0.0378
13,ACGCGGCA,-0.0886
14,CGGTAGCA,-0.0746
15,CAGGATGC,-0.0207
16,GAAAAGAA,0.144
17,AGCTGTGC,-0.0999
18,AAGCATGC,-0.135
19,CGACTAAG,-0.177
20,GGCACACC,-0.194
21,ATTTTCCC,0.124
22,GTATTTAA,-0.0904

# In another format: entries from further up.
row	Sequence	PBM E-score
6	GCGATCCC	-0.0756
16	GCACTAAC	-0.0635
18	CCGCCGTC	0.132
10	AGTCGGTG	-0.168
